# Assay results published in PubChem BioAssay AID504444 (National Center for Advancing Translational Sciences (NCATS), 2011).
# Where “and” joins values, the source holds several entries; their conditions need not be identical. Equal entries are not always repeated. Screen size: about 360,000 compounds; about 7,500 (2.1%) were called active. Inconclusive means that the source gave no clear call. Such entries were picked first, then a sample of the others. Calls follow the shape of the dose curve; as a rule, active = well fitted inhibition curve with a large enough effect; inconclusive = small, poorly fitted or top-dose-only effect, or effect the other way; inactive = flat fitted curve, though single readings scatter. Potencies of inconclusive entries are doubtful fits and often do not repeat.
# Test: Nrf2 qHTS screen for inhibitors; also: nearly all actives have a fitted effect of over 60% in size
# Conditions: A549 ARE-Fluc reporter, luciferase luminescence, 18-24 h; series mostly up to 46 µM
# Outline: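 A549 ARE_Fluc cells (5000/well, 5% FBS OPTI-MEM) pre-incubated 2 h, then treated with compounds 18-24 h at 37C/5% CO2 in concentration-response. CellTiter-Fluor viability read first; BugLite luciferase luminescence after 15 min at room temperature gives Nrf2 activity.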
# Potency is read from the fitted curve at half-maximal effect.
row,Structure (SMILES),Potency
1,O=C(COc1ccccc1F)Nc1ccc2nc(SCC(=O)N3CCOCC3)sc2c1,active: 18.4 µM
2,Cn1c(SCC(=O)Nc2cccc(F)c2)nc2c(c1=O)SCC2,"inconclusive: 18.4 µM [falling, partial curve]"
3,Cc1cccc(-c2cc(C(=O)N/N=C/c3cccnc3)c3ccccc3n2)c1,"inconclusive: 29.1 µM [activator, single point]"
4,O=C(c1ccc(CSc2nc3ccncc3[nH]2)cc1)N1CCCCCC1,inactive
5,CCOC(=O)C1C(=O)CC(C)(O)C(C(=O)OCC)C1c1ccc(Br)cc1 (stereo unspecified),inactive
6,Cc1ccc(NC(=O)C(=O)N2CCCC2)cc1Cl,"inconclusive: 2.91 µM [activator, partial curve, poor fit]"
7,O=C(CN1CCOCC1)Nc1nc(-c2ccc3c(c2)CCN3S(=O)(=O)c2ccccc2)cs1,"inconclusive: 25.9 µM [falling, single point]"
8,Cc1c(-c2nsc(NC(=O)c3cccs3)n2)nnn1-c1ccc(F)cc1,"inconclusive: 0.82 µM [falling, full curve]"
9,CCOC(=O)C1(CCOc2ccccc2)CCN(Cc2ccc(-n3cccn3)cc2)CC1,"inconclusive: 23.1 µM [falling, partial curve, poor fit]"
10,COc1ccc(C(=O)C2CCCN(Cc3ccc4nonc4c3)C2)c(OC)c1 (stereo unspecified),"inconclusive: 29.1 µM [falling, single point]"
11,Nc1nonc1-c1noc(COc2ccccc2Cl)n1,"inconclusive: 6.51 µM [activator, partial curve]"
12,COc1ccc(CNc2nc(NCc3ccc(OC)c(OC)c3)n(C(=O)c3cccs3)n2)cc1OC,"inconclusive: 18.4 µM [falling, single point]"
13,COc1cccc(C(=O)Nc2nnc(C3CCCO3)s2)c1 (stereo unspecified),"inconclusive: 0.411 µM [activator, full curve, poor fit]"
14,O=C(Nc1ccc(N2CCOCC2)cc1)c1ccc([N+](=O)[O-])o1,"inconclusive: 29.1 µM [activator, single point]"
15,O=C(CN1C(=O)NC(Cc2c[nH]c3ccccc23)C1=O)NCCc1ccccc1 (stereo unspecified),"inconclusive: 10.3 µM [activator, partial curve, poor fit]"
16,CCCC1(c2ccccc2)NC(=O)N(CC(=O)N2CC(=O)Nc3ccccc32)C1=O (stereo unspecified),"inconclusive: 5.17 µM [falling, full curve, poor fit]"
17,O=C1c2ccccc2C(=O)N1c1ccccc1O,inactive
18,COc1ccc2[nH]c(=O)c(CNc3ccccc3C)cc2c1,inactive
19,COc1ccccc1C(=O)Nc1nnc(SCC(=O)NC2CCCC2)s1,"inconclusive: 1.16 µM [activator, partial curve]"
20,CCOC(=O)c1cnc(SCCc2ccccc2)nc1N,"inconclusive: 0.651 µM [activator, full curve]"
21,Cc1cc(S(=O)(=O)Nc2c(C)nn(C)c2C)c(Cl)cc1Cl,"inconclusive: 20.6 µM [falling, partial curve]"
22,O=C1N[C@@H](c2ccccc2)COC(=O)[C@@H](Cc2ccc(F)cc2)C/C=C\C[C@H]1CC(=O)N(CCO)Cc1ccccc1,"inconclusive: 25.9 µM [falling, single point]"

row,Structure (SMILES),Potency
1,CCCCN(CC)c1nc(N)c2c(N)nc(OCC)cc2c1C#N,"inconclusive: 25.9 µM [falling, single point]"
2,Cn1cc(/C=C2\SC(=S)N(NC(=O)c3cccc(Cl)c3)C2=O)c2ccccc21,"inconclusive: 11.6 µM [falling, partial curve, poor fit]"
3,COc1ccc(-c2nsc3c(N4CCCCC4C)ncnc23)cc1 (stereo unspecified),"inconclusive: 0.184 µM [falling, full curve, poor fit]"
4,CCCc1cc(=O)oc2cc(C)cc(OC(C)C(=O)NCCCN3CCOCC3)c12 (stereo unspecified),"inconclusive: 11.6 µM [falling, partial curve, poor fit]"
5,COC(=O)[C@]1(C)N[C@H](c2ccc(-c3ccc(Cl)c(Cl)c3)c(OC)c2)[C@@H]2C(=O)N(C)C(=O)[C@@H]21,"inconclusive: 25.9 µM [falling, single point]"
6,CC(=O)c1ccc(S(=O)(=O)Nc2ccc3c(c2)OCO3)cc1,"inconclusive: 13 µM [falling, partial curve, poor fit]"
7,O=c1c2ccccc2sc2nc(CCl)nn12,inactive
8,COc1cccc(-c2nc(-c3ccccn3)no2)c1,"inconclusive: 18.4 µM [falling, single point]"
9,Clc1ccc(CSc2nnc(CNc3cccc(Cl)c3)o2)cc1,inactive
10,O=C(Nc1nnc(-c2cccs2)s1)c1cccc(F)c1,inactive
11,CC1CC(C)(C)N(C(=O)CSc2ccc(-c3ccc(F)cc3)nn2)c2ccccc21 (stereo unspecified),"inconclusive: 29.1 µM [falling, single point]"
12,O=C(CCS(=O)(=O)c1ccc(Br)s1)Nc1cc(C(F)(F)F)cc(C(F)(F)F)c1,active: 23.1 µM
13,O=C(CCc1ccccc1Cl)Nc1cc(S(=O)(=O)N2CCOCC2)ccc1N1CCCC1,"inconclusive: 32.6 µM [falling, partial curve, poor fit]"
14,CC(C)[C@H](NC(=O)c1ccc(C(C)(C)C)cc1)C(=O)Nc1nnc(C2CC2)s1,"inconclusive: 29.1 µM [falling, single point]"
15,Cc1ccc(NC(=O)c2cc(S(=O)(=O)c3ccccc3)ccc2Cl)cc1,"inconclusive: 29.1 µM [falling, single point]"
16,Cc1ccccc1Nc1c(-c2ccc(N3CCOCC3)cc2)nc2cccc(C)n12,"inconclusive: 29.1 µM [falling, single point]"
17,O=C(Nc1ccc(S(=O)(=O)NCc2ccco2)cc1)c1ccncc1,active: 13 µM
18,CCOc1ccccc1CNC(=O)c1ccc2nc(N3CCC(C)CC3)sc2c1,"inconclusive: 5.8 µM [activator, partial curve]"
19,CCC(=O)Nc1ccc(N2CCCCC2)c(C(=O)Nc2ccc(OC)cc2)c1,active: 18.4 µM
20,C=CCNC(=S)N/N=C(\C)c1ccc(OC)cc1,"inconclusive: 0.259 µM [activator, full curve, poor fit]"
21,CC(=O)N1c2ccccc2Oc2cc3ccccc3cc21,inactive
22,CCN1CCN(CC(O)COc2ccc(C)c(C)c2)CC1 (stereo unspecified),"inconclusive: 65.1 nM [activator, partial curve, poor fit] and inconclusive: 11.6 µM [activator, partial curve, poor fit]"

row,Structure (SMILES),Potency
1,COc1ccc(OC)c(CNC(=O)COc2cc(=O)n(C)c3ccccc23)c1,"inconclusive: 32.6 µM [falling, partial curve, poor fit]"
2,Cc1ccccc1C(=O)Nc1ccc(N2CCCCCC2)cc1,"inconclusive: 18.4 µM [activator, partial curve]"
3,CCC(=O)Nc1ccc(S(=O)(=O)NCCc2ccccc2)cc1,"inconclusive: 2.31 µM [falling, partial curve]"
4,CCc1ccc(CN2CCN(C(=O)c3ccco3)CC2)cc1,"inconclusive: 23.1 µM [falling, single point]"
5,C=C1CCC[C@]2(C)C[C@H]3OC(=O)C(CN[C@@H](C)c4ccccc4)[C@H]3CC12 (stereo partly specified),"inconclusive: 2.06 µM [activator, partial curve, poor fit]"
6,C=Cc1ccc(Cn2c(C(=O)O)c(CNCCc3ccco3)c3ccc(C)cc32)cc1,inactive
7,Cc1cc(OCc2cc(C(=O)N(C)C(C)c3ccccn3)no2)cc(C)c1Cl (stereo unspecified),"inconclusive: 1.84 µM [activator, full curve]"
8,COc1ccc(OC)c(Nc2nc(-c3cccc([N+](=O)[O-])c3)nc3ccccc23)c1,"inconclusive: 1.84 µM [falling, partial curve, poor fit]"
9,O=C(Nc1ccc(NC(=O)C2CC2)cn1)c1ccccc1Cl,"inconclusive: 20.6 µM [activator, partial curve]"
10,CCN(CC)CCCN=Cc1c(O)n(-c2ccccc2C)c(=O)c2ccccc12,inactive
11,CCOc1ccccc1NC(=O)CSc1ncc2c(n1)-c1ccccc1N(CC)S2(=O)=O,inactive
12,C/C(=N\NC(=O)Cc1ccc(Cl)cc1)c1ccccn1,active: 3.26 µM
13,Cc1sc(NC(=O)CCCCC(=O)Nc2sc(C)c(C)c2C(=O)O)c(C(=O)O)c1C,inactive
14,COc1ccc(-c2csc(NC(=O)C3CC(=O)N(c4ccc5c(c4)OCCO5)C3)n2)cc1 (stereo unspecified),"inconclusive: 29.1 µM [falling, single point]"
15,CCC(C)c1ccccc1N=Cc1ccc2c(c1)OCO2 (stereo unspecified),inactive
16,Cc1cccc(NC(=O)C(=O)NCCCN2CCOCC2)c1,"inconclusive: 20.6 µM [activator, partial curve, poor fit]"
17,Cc1cccc(-c2noc(CCCC(=O)NCC3CCCO3)n2)c1 (stereo unspecified),"inconclusive: 23.1 µM [falling, partial curve]"
18,C=CCn1c(-c2ccccc2)nc2nc3ccccc3nc21,"inconclusive: 7.31 µM [activator, partial curve, poor fit]"
19,CC(C)=CCN1CCN(Cc2ccc(C)s2)CC1CCO (stereo unspecified),"inconclusive: 25.9 µM [activator, partial curve, poor fit]"
20,Nc1nc(NC(=O)c2ccccc2Cl)nn1-c1ccccc1,"inconclusive: 11.6 µM [activator, single point]"
21,CCOc1cc(S(=O)(=O)N2CCC(Cc3ccccc3)CC2)c(OCC)cc1-n1cnnn1,inactive
22,Cc1ccc(OCCC(=O)Nc2ccc(C)c(S(=O)(=O)N3CCOCC3)c2)cc1,"inconclusive: 20.6 µM [falling, single point]"

# 19 successive entries out of the list so far, quoted:
row,Structure (SMILES),Potency
1,COc1ccc(OC)c(CNC(=O)COc2cc(=O)n(C)c3ccccc23)c1,"inconclusive: 32.6 µM [falling, partial curve, poor fit]"
2,Cc1ccccc1C(=O)Nc1ccc(N2CCCCCC2)cc1,"inconclusive: 18.4 µM [activator, partial curve]"
3,CCC(=O)Nc1ccc(S(=O)(=O)NCCc2ccccc2)cc1,"inconclusive: 2.31 µM [falling, partial curve]"
4,CCc1ccc(CN2CCN(C(=O)c3ccco3)CC2)cc1,"inconclusive: 23.1 µM [falling, single point]"
5,C=C1CCC[C@]2(C)C[C@H]3OC(=O)C(CN[C@@H](C)c4ccccc4)[C@H]3CC12 (stereo partly specified),"inconclusive: 2.06 µM [activator, partial curve, poor fit]"
6,C=Cc1ccc(Cn2c(C(=O)O)c(CNCCc3ccco3)c3ccc(C)cc32)cc1,inactive
7,Cc1cc(OCc2cc(C(=O)N(C)C(C)c3ccccn3)no2)cc(C)c1Cl (stereo unspecified),"inconclusive: 1.84 µM [activator, full curve]"
8,COc1ccc(OC)c(Nc2nc(-c3cccc([N+](=O)[O-])c3)nc3ccccc23)c1,"inconclusive: 1.84 µM [falling, partial curve, poor fit]"
9,O=C(Nc1ccc(NC(=O)C2CC2)cn1)c1ccccc1Cl,"inconclusive: 20.6 µM [activator, partial curve]"
10,CCN(CC)CCCN=Cc1c(O)n(-c2ccccc2C)c(=O)c2ccccc12,inactive
11,CCOc1ccccc1NC(=O)CSc1ncc2c(n1)-c1ccccc1N(CC)S2(=O)=O,inactive
12,C/C(=N\NC(=O)Cc1ccc(Cl)cc1)c1ccccn1,active: 3.26 µM
13,Cc1sc(NC(=O)CCCCC(=O)Nc2sc(C)c(C)c2C(=O)O)c(C(=O)O)c1C,inactive
14,COc1ccc(-c2csc(NC(=O)C3CC(=O)N(c4ccc5c(c4)OCCO5)C3)n2)cc1 (stereo unspecified),"inconclusive: 29.1 µM [falling, single point]"
15,CCC(C)c1ccccc1N=Cc1ccc2c(c1)OCO2 (stereo unspecified),inactive
16,Cc1cccc(NC(=O)C(=O)NCCCN2CCOCC2)c1,"inconclusive: 20.6 µM [activator, partial curve, poor fit]"
17,Cc1cccc(-c2noc(CCCC(=O)NCC3CCCO3)n2)c1 (stereo unspecified),"inconclusive: 23.1 µM [falling, partial curve]"
18,C=CCn1c(-c2ccccc2)nc2nc3ccccc3nc21,"inconclusive: 7.31 µM [activator, partial curve, poor fit]"
19,CC(C)=CCN1CCN(Cc2ccc(C)s2)CC1CCO (stereo unspecified),"inconclusive: 25.9 µM [activator, partial curve, poor fit]"
